These are yes or no findings as the source states them, for the method shown. Some entries that bind do so weakly or less than the wild type. Tags and fused reporters may be left off the sequences shown. One block for each binder: values may come before it.
Target: Teneurin-4 (Ten4^HA) (UniProt Q3UHK6)
Assay: cell adhesion (cell aggregation) assay; HEK293T cells transfected one by one with Lphn^mVenus or Ten4^HA, detached, mixed and shaken gently 120 min at room temperature in DMEM, 10% FBS, 50 mM HEPES-NaOH pH 7.4, 10 mM CaCl2, 10 mM MgCl2; aggregates plated and seen by confocal microscopy

Sequences of proteins named here, by UniProt entry; tags and fusion partners are left off.
UniProt Q3UHK6: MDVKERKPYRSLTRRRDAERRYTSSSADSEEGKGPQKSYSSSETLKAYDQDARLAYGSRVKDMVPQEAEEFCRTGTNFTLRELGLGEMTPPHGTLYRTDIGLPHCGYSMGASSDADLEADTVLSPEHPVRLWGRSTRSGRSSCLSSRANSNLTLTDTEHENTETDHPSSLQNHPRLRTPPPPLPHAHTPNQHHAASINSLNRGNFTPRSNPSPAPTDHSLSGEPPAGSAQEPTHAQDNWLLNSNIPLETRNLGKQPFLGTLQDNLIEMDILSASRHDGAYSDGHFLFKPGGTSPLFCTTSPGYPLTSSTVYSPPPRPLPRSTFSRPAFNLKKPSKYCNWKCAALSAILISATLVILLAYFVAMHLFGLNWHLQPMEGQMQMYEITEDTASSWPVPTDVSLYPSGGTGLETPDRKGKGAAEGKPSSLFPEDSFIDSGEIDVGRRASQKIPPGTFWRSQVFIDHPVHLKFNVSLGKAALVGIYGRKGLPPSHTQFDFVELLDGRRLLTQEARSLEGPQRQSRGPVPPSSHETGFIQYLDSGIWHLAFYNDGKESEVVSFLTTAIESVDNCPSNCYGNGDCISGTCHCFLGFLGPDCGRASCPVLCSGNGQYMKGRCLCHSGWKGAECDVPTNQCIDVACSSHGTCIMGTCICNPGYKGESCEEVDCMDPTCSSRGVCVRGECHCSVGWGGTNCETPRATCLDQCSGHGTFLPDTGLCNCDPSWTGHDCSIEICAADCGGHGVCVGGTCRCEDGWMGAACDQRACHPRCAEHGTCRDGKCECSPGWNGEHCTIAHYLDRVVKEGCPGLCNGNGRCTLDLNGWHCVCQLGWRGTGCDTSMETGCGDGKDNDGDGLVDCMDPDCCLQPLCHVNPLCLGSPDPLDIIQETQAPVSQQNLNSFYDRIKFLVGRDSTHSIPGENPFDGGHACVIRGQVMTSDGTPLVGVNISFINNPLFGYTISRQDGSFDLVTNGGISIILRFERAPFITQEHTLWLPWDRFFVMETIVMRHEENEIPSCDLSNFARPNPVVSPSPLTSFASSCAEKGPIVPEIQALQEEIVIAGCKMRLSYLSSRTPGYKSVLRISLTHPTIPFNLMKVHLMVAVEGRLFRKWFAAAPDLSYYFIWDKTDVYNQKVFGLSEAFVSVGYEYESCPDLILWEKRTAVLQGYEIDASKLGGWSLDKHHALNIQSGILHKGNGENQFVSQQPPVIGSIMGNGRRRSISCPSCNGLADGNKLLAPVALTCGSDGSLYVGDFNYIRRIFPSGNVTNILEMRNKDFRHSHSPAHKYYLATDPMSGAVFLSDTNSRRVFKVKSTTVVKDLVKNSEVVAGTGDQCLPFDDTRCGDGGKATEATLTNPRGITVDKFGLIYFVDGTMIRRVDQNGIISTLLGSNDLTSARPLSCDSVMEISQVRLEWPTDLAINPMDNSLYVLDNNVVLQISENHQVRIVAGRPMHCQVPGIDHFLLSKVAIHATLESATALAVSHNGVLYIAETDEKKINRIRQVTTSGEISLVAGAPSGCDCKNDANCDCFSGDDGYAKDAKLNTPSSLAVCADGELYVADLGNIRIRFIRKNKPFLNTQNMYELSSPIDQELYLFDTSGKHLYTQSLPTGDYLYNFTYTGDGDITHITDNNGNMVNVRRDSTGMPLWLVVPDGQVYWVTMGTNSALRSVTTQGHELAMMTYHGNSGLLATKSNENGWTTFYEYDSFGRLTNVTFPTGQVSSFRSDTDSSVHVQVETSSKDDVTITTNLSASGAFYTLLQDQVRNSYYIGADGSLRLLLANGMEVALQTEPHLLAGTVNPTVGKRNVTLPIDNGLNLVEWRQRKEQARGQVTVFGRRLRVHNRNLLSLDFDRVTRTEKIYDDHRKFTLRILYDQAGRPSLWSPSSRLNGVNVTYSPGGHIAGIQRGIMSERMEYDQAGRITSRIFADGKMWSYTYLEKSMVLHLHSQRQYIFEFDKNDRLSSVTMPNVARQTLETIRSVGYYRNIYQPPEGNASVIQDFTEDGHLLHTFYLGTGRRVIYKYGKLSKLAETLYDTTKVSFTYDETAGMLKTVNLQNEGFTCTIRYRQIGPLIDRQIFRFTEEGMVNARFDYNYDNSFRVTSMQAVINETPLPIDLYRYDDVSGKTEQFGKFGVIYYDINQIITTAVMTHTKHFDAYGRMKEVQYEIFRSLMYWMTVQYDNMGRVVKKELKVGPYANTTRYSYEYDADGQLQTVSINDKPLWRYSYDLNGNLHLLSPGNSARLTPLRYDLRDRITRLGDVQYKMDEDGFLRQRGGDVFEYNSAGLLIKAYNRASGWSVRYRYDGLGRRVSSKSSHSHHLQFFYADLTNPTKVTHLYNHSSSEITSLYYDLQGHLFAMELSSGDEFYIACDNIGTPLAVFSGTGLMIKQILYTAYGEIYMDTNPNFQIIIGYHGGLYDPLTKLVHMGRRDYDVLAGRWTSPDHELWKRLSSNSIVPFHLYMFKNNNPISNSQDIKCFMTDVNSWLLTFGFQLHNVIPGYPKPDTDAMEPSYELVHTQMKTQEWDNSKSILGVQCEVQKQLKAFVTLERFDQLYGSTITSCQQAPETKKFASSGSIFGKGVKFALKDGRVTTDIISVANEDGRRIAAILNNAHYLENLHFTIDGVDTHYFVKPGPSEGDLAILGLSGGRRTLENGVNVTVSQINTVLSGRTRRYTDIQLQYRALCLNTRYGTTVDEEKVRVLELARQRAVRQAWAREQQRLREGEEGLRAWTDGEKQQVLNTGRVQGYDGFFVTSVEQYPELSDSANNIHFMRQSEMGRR

binding: binds
B1: Lphn2^mVenus (latrophilin-2 with N-terminal Flag epitope and mVenus at a C-terminal Pml I site) (receptor, UniProt O88923 26-1487)
chain: FSRAALPFGLVRRELSCEGYSIDLRCPGSDVIMIESANYGRTDDKICDADPFQMENTDCYLPDAFKIMTQRCNNRTQCVVVTGSDVFPDPCPGTYKYLEVQYECVPYMEQKVFVCPGTLKAIVDSPSIYEAEQKAGAWCKDPLQAADKIYFMPWTPYRTDTLIEYASLEDFQNSRQTTTYKLPNRVDGTGFVVYDGAVFFNKERTRNIVKFDLRTRIKSGEAIINYANYHDTSPYRWGGKTDIDLAVDENGLWVIYATEQNNGMIVISQLNPYTLRFEATWETTYDKRAASNAFMICGVLYVVRSVYQDNESEAGKNVIDYIYNTRLSRGEHVDVPFPNQYQYIAAVDYNPRDNQLYVWNNNFILRYSLEFGPPDPAQVPTTAVTITSSAELFKTTVSTTSSTSQRGPVSSTVAGPQEGSRGTKPPPAVSTTKIPPVTNIFPLPERFCEALEMKGIKWPQTQRGMMVERPCPKGTRGTASYLCMASTGTWNPKGPDLSNCTSHWVNQLAQKIRSGENAASLANELAKHTKGTVFAGDVSSSVRLMEQLVDILDAQLQELKPSEKDSAGRSYNKLQKREKTCRAYLKAIVDTVDNLLRAETLDCWKHMNSSEQAHTATMLLDTLEEGAFVLADNLLEPTRVSMPTDNIVLEVAVLSTEGQVQDFTFHLGFKGAFSSIQLSANTVKQNSRNGLAKVVFIIYRSLGPFLSTENATVKLGADLLGRNSTIAVNSHVLSVSINKESSRVYLTDPVLFSMPHIDSDNYFNANCSFWNYSERTMMGYWSTQGCKLVDTNKTRTTCACSHLTNFAILMAHREIVYKDGVHKLLLTVITWVGIVVSLVCLAICIFTFCFFRGLQSDRNTIHKNLCINLFIAEFIFLIGIDKTQYTIACPVFAGLLHFFFLAAFSWMCLEGVQLYLMLVEVFESEYSRKKYYYVAGYLFPATVVGVSAAIDSKSYGTLEACWLHVDNYFIWSFIGPVTFIILLNIIFLVITLCKMVKHSNTLKPDSSRLENINNYRVCDGYYNTDLPGYEDNKPFIKSWVLGAFALLCLLGLTWSFGLLFVNEETVVMAYLFTAFNAFQGLFIFIFHCALQKKVRKEYAKCFRHWYCCGGLPTESPHSSVKASTSRTSARYSSGTQSRIRRMWNDTVRKQSESSFISGDINSTSTLNQGMTGNYLLTNPLLRPHGTNNPYNTLLAETVVCNAPSAPVFNSPGHSLNNTRDTSAMDTLPLNGNFNNSYSLRKADYHDGVQVVDCGLSLNDTAFEKMIISELVHNNLRGSNKTHNLELKLPVKPVIGGSSSEDDAIVADASSLMHGDNPGLEFRHKELEAPLIPQRTHSLLYQPQKKVKPEATDSYVSQLTAEADEHLQSPNRDSLYTSMPNLRDSPYPESSPDMAEDLSPSRRSENEDIYYKSMPNLGAGRQLQMCYQISRGNSDGYIIPINKEGCIPEGDVREGQMQLVTSL

binding: binds
B2: Lphn1^mVenus (rat latrophilin-1, isoform CL1AA, with mVenus inserted in the cytoplasmic tail) (receptor, UniProt O88917-2 25-1466)
chain: LSRAGLPFGLMRRELACEGYPIELRCPGSDVIMVENANYGRTDDKICDADPFQMENVQCYLPDAFKIMSQRCNNRTQCVVVAGSDAFPDPCPGTYKYLEVQYDCVPYIFVCPGTLQKVLEPTSTHESEHQSGAWCKDPLQAGDRIYVMPWIPYRTDTLTEYASWEDYVAARHTTTYRLPNRVDGTGFVVYDGAVFYNKERTRNIVKYDLRTRIKSGETVINTANYHDTSPYRWGGKTDIDLAVDENGLWVIYATEGNNGRLVVSQLNPYTLRFEGTWETGYDKRSASNAFMVCGVLYVLRSVYVDDDSEAAGNRVDYAFNTNANREEPVSLAFPNPYQFVSSVDYNPRDNQLYVWNNYFVVRYSLEFGPPDPSAGPATSPPLSTTTTARPTPLTSTASPAATTPLRRAPLTTHPVGAINQLGPDLPPATAPAPSTRRPPAPNLHVSPELFCEPREVRRVQWPATQQGMLVERPCPKGTRGIASFQCLPALGLWNPRGPDLSNCTSPWVNQVAQKIKSGENAANIASELARHTRGSIYAGDVSSSVKLMEQLLDILDAQLQALRPIERESAGKNYNKMHKRERTCKDYIKAVVETVDNLLRPEALESWKDMNATEQVHTATMLLDVLEEGAFLLADNVREPARFLAAKQNVVLEVTVLSTEGQVQELVFPQEYASESSIQLSANTIKQNSRNGVVKVVFILYNNLGLFLSTENATVKLAGEAGTGGPGGASLVVNSQVIAASINKESSRVFLMDPVIFTVAHLEAKNHFNANCSFWNYSERSMLGYWSTQGCRLVESNKTHTTCACSHLTNFAVLMAHREIYQGRINELLLSVITWVGIVISLVCLAICISTFCFLRGLQTDRNTIHKNLCINLFLAELLFLVGIDKTQYEVACPIFAGLLHYFFLAAFSWLCLEGVHLYLLLVEVFESEYSRTKYYYLGGYCFPALVVGIAAAIDYRSYGTEKACWLRVDNYFIWSFIGPVSFVIVVNLVFLMVTLHKMIRSSSVLKPDSSRLDNIKSWALGAIALLFLLGLTWAFGLLFINKESVVMAYLFTTFNAFQGVFIFVFHCALQKKVHKEYSKCLRHSYCCIRSPPGGAHGSLKTSAMRSNTRYYTGTQSRIRRMWNDTVRKQTESSFMAGDINSTPTLNRGTMGNHLLTNPVLQPRGGTSPYNTLIAESVGFNPSSPPVFNSPGSYREPKHPLGGREACGMDTLPLNGNFNNSYSLRSGDFPPGDGGPEPPRGRNLADAAAFEKMIISELVHNNLRGASGGAKGPPPEPPVPPVPGVSEDEAGGPGGADRAEIELLYKALEEPLLLPRAQSVLYQSDLDESESCTAEDGATSRPLSSPPGRDSLYASGANLRDSPSYPDSSPEGPNEALPPPPPAPPGPPEIYYTSRPPALVARNPLQGYYQVRRPSHEGYLAAPSLEGPGPDGDGQMQLVTSL
